Results as given in US20250179125A1 (University of Washington, priority 2021, published 2025).

Experiment: Fmoc solid-phase peptide synthesis; Rink amide resin; DIC/Oxyma; HBTU/DIEA (manual)
Conditions: whole synthesis

Substance: Ac-RGEmNyFwMNEYYGWIMnCkMGR-NH2
- final HPLC purity: >98%
